Results reported in PMC12837008.
These are yes or no findings as the source states them, for the method shown. Binding seen in cells or lysates may run through a third protein. Some entries that bind do so weakly or less than the wild type.

The chains behind the UniProt entries cited, without tags or fusion partners. Residues count along the entry.
UniProt Q9H1D0: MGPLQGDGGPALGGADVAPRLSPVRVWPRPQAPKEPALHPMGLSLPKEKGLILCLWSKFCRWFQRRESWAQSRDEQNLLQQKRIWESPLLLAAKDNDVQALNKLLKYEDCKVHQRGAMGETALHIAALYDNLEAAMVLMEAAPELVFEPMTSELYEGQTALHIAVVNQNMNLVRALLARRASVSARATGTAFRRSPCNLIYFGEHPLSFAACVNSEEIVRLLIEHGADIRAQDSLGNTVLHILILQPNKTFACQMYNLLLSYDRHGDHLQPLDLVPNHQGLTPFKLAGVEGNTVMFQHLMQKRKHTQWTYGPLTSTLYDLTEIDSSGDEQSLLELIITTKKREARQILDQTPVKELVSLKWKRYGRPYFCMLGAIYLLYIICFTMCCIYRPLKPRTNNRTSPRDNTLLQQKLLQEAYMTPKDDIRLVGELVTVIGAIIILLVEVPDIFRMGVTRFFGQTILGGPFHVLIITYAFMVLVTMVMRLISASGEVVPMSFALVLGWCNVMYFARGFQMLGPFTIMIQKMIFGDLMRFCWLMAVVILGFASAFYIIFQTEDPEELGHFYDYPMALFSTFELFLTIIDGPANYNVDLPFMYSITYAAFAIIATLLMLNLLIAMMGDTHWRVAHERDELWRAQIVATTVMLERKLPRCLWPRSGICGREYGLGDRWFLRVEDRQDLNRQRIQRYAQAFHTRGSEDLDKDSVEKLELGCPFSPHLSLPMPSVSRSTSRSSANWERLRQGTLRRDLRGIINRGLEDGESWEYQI
UniProt P11717, residues 41-2491: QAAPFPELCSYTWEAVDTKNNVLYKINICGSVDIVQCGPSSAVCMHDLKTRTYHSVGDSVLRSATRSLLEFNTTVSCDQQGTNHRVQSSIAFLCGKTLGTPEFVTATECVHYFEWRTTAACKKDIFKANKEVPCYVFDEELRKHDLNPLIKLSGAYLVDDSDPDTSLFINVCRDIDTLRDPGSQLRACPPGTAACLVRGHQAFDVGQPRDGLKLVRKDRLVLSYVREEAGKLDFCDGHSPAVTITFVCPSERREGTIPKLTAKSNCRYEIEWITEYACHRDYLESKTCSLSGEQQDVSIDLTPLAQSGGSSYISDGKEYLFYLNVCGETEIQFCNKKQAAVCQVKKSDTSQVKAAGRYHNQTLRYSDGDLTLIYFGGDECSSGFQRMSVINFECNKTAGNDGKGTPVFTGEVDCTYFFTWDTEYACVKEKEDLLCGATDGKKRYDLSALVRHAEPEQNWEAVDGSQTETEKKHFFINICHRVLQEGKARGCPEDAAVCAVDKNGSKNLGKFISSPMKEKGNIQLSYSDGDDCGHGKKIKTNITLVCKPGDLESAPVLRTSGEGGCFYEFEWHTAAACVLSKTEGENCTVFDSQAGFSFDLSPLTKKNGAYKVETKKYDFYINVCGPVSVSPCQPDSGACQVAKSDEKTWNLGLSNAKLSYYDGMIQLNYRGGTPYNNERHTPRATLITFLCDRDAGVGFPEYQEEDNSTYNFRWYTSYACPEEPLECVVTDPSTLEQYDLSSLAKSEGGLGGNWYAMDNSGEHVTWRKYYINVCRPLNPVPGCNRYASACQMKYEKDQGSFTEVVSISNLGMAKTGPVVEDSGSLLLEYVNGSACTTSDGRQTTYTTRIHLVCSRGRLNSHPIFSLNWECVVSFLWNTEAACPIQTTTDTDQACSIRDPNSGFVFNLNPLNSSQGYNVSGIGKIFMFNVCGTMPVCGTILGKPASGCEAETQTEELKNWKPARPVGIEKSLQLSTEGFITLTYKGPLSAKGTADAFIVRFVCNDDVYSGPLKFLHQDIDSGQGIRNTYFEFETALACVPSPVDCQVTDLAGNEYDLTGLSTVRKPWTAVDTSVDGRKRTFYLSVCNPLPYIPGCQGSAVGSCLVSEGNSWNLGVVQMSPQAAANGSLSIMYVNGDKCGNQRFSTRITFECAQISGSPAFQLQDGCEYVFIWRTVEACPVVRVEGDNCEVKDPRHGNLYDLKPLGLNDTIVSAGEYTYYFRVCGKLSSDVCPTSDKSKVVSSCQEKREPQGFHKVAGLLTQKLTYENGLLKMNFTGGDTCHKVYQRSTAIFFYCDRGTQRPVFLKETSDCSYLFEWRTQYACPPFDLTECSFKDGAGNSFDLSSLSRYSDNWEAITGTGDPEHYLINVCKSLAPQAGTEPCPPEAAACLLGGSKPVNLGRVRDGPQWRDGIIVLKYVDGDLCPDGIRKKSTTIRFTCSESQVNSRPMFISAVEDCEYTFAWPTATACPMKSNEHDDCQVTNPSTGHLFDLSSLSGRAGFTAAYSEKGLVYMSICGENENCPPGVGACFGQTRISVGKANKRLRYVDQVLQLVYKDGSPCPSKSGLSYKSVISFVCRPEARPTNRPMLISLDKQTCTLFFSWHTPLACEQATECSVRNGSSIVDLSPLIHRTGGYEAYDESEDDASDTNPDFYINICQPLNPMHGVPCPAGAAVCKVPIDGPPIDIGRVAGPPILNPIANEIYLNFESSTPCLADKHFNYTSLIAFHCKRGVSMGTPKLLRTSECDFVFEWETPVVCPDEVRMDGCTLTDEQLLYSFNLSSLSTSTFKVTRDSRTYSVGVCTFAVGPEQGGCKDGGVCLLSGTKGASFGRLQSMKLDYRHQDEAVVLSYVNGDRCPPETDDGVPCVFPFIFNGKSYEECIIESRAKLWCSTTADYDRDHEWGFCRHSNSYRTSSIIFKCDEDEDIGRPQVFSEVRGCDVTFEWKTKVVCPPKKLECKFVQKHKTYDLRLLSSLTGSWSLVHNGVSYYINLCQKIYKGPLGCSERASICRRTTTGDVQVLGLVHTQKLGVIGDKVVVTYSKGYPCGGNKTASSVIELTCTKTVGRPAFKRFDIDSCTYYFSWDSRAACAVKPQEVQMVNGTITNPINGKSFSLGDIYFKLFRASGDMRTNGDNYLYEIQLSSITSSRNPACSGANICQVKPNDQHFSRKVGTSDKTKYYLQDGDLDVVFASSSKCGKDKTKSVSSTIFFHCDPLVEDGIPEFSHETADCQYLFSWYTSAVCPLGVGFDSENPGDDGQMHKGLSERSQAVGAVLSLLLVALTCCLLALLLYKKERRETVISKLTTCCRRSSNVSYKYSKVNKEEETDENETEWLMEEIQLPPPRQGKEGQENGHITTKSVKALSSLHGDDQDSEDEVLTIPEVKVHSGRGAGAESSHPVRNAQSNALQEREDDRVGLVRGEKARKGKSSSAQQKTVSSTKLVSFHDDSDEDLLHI

Key:
[1] = molecular target: TRPV6mRFP (TRPV6 fused to mRFP) (UniProt Q9H1D0); assay: co-IP; HEK293 cells co-transfected with TRPV6mRFP and IGF2ReGFP; RIPA lysate (150 mM NaCl, 50 mM Tris-HCl pH 8.0, 5 mM EDTA, 1% NP-40, 0.1% SDS, 0.5% deoxycholate); overnight at 4 °C with Dynabeads Protein A/G carrying TRPV6 antibody 429 or GFP antibody (rabbit IgG or mouse IgG as controls); Western blot with antibody 429 or GFP antibody
[2] = molecular target: IGF2ReGFP (cation independent mannose-6-phosphate receptor, CI-M6PR/IGF2R, fused to eGFP) (human (cloned from BeWo cDNA)) (UniProt P11717); assay: as above

binding [1] | binding [2] | Substance
binds |  | IGF2ReGFP (cation independent mannose-6-phosphate receptor, CI-M6PR/IGF2R, fused to eGFP) (from UniProt P11717 41-2491)
 | binds | TRPV6mRFP (TRPV6 fused to mRFP) (from UniProt Q9H1D0 1-765)
